For 3 molecules, binding results are on record in US20250032632A1 (published 2025).

Results are given in words; binding and its absence hold for the method and conditions named. Some results given as binding are weak or reduced against the parent protein; the word gives no strength.

The assay deals with monkey cMET (Macaca fascicularis, Cynomolgus Macaque) (Cynomolgus Macaque (Macaca fascicularis)). In words: ELISA, cross-reactivity, NHP (Cynomolgus Macaque) cMET.

B1: F6B1P3D12 (mouse monoclonal anti-cMET antibody) (antibody, V domains shown)
VH: QVQLQQSGAELAKPGASVKMSCRASGYTFTSYWMHWVKQRPGQGLDWIGYIKPSTDNTEYNQKFKDKATLTADKSSSTAYMQLSSLTSEDSAVYYCARSYGNYPLMDYWGQGTSVTVSS
VL: QIVLTQSPAIMSASPGEKVTLTCSASSSVTSNYLYWYQQKPGSSPKLWIYSTSNLASGVPARFSGSGSGTSYSLTISSMEAEDAASYFCHQWSSYPPTFGSGTKLEIKR
notes: Mouse hybridoma antibody (ATCC PTA-125826); also called Mouse P3D12
With B1, the binding entry is recorded as “binds”.

B2: F6B1P1E2 (antibody, V domains shown)
VH: QVQLQQSGAELAKPGASVKMSCKASGYTFTSYWMHWVKQRPGQGLEWIGYINPSTDYTEYNQKFKDKATLTADKSSTTAYMQLSSLTSEDSAVYYCVRSYGNYPLMDYWGQGTSVTVSS
VL: QIVLTQSPAIMSASPGEKVTLTCSASSSVSSNYLYWYHQKPGSSPKLWIYSTSNLASGVPVRFSGSGSGTSYSLTISSMEAEDAASYFCHQWSSYPPTFGSGTKLEIKR
notes: Mouse monoclonal antibody
With B2, the binding entry is recorded as “binds”.

B3: F6BP2D4 (antibody, V domains shown)
VH: QVQLQQSGAELAKPGASVKMSCKASGYTFTSYWMHWVKQRPGQGLEWIGYINPSTDYIEYNQKFKDKATLTAGKSSSTAYMQLSSLTSEDSAVYYCARSYGNFPLMDYWGQGTSVTVSS
VL: QIVLTQSPAIMSASPGEKVTLTCSASSSVSSNYLYWYQQKPGSSPKLWIYSTSNLASGVPVRFSGSGSGTSYSLTISSMEAEDAASYFCHQWSSYPPTFGSGTKLEIKR
notes: Mouse monoclonal antibody
On to B3, for which the binding result is “binds”.
